Laboratory results from paper PMC11381347.

Protein sequences, listed by entry. Tags and fused reporters are not part of them. Lines headed by an entry give the natural chain unless they say otherwise; changes in a name come on top.
UniProt O15047: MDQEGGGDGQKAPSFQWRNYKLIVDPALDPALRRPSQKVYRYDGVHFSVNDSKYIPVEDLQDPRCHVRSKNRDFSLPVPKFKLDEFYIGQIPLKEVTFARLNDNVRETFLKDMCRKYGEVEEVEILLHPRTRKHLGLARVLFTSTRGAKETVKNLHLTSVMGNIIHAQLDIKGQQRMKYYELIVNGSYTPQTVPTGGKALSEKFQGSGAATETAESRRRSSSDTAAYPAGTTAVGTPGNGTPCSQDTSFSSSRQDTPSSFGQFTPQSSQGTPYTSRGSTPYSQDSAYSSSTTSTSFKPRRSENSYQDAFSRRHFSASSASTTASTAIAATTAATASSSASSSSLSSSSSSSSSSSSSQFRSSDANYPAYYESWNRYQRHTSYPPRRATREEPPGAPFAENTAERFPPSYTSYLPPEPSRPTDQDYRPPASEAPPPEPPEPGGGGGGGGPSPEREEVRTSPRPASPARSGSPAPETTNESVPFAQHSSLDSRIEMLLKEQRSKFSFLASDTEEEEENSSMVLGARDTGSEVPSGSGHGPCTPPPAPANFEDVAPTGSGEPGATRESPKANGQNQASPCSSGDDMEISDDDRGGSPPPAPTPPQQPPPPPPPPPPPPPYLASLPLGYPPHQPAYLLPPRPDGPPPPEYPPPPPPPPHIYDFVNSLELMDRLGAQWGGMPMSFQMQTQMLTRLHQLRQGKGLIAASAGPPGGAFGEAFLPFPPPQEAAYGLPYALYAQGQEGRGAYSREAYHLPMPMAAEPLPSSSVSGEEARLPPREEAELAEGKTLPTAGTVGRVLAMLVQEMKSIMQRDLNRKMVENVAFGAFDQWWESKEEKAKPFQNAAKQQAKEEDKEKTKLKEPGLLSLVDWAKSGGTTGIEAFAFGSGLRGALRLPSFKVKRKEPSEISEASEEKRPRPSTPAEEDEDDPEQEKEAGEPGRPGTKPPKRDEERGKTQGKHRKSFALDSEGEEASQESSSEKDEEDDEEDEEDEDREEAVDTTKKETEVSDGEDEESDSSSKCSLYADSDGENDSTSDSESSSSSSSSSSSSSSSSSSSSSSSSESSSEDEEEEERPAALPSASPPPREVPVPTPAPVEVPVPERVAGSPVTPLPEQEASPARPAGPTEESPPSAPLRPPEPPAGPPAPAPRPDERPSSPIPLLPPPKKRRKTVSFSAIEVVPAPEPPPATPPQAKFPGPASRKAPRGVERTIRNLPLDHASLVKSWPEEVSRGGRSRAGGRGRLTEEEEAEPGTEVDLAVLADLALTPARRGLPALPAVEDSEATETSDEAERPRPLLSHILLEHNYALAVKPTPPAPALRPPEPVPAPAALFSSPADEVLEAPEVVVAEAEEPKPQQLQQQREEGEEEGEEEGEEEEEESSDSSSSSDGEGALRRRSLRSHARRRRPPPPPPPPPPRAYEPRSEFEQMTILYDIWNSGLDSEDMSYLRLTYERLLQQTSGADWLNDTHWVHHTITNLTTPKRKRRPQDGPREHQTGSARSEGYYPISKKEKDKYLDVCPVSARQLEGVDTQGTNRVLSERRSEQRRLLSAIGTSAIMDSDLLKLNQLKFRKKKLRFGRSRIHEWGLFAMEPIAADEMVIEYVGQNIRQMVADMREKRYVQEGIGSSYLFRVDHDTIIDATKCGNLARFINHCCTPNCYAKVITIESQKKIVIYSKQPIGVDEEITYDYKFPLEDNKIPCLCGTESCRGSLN
UniProt Q8NFC6: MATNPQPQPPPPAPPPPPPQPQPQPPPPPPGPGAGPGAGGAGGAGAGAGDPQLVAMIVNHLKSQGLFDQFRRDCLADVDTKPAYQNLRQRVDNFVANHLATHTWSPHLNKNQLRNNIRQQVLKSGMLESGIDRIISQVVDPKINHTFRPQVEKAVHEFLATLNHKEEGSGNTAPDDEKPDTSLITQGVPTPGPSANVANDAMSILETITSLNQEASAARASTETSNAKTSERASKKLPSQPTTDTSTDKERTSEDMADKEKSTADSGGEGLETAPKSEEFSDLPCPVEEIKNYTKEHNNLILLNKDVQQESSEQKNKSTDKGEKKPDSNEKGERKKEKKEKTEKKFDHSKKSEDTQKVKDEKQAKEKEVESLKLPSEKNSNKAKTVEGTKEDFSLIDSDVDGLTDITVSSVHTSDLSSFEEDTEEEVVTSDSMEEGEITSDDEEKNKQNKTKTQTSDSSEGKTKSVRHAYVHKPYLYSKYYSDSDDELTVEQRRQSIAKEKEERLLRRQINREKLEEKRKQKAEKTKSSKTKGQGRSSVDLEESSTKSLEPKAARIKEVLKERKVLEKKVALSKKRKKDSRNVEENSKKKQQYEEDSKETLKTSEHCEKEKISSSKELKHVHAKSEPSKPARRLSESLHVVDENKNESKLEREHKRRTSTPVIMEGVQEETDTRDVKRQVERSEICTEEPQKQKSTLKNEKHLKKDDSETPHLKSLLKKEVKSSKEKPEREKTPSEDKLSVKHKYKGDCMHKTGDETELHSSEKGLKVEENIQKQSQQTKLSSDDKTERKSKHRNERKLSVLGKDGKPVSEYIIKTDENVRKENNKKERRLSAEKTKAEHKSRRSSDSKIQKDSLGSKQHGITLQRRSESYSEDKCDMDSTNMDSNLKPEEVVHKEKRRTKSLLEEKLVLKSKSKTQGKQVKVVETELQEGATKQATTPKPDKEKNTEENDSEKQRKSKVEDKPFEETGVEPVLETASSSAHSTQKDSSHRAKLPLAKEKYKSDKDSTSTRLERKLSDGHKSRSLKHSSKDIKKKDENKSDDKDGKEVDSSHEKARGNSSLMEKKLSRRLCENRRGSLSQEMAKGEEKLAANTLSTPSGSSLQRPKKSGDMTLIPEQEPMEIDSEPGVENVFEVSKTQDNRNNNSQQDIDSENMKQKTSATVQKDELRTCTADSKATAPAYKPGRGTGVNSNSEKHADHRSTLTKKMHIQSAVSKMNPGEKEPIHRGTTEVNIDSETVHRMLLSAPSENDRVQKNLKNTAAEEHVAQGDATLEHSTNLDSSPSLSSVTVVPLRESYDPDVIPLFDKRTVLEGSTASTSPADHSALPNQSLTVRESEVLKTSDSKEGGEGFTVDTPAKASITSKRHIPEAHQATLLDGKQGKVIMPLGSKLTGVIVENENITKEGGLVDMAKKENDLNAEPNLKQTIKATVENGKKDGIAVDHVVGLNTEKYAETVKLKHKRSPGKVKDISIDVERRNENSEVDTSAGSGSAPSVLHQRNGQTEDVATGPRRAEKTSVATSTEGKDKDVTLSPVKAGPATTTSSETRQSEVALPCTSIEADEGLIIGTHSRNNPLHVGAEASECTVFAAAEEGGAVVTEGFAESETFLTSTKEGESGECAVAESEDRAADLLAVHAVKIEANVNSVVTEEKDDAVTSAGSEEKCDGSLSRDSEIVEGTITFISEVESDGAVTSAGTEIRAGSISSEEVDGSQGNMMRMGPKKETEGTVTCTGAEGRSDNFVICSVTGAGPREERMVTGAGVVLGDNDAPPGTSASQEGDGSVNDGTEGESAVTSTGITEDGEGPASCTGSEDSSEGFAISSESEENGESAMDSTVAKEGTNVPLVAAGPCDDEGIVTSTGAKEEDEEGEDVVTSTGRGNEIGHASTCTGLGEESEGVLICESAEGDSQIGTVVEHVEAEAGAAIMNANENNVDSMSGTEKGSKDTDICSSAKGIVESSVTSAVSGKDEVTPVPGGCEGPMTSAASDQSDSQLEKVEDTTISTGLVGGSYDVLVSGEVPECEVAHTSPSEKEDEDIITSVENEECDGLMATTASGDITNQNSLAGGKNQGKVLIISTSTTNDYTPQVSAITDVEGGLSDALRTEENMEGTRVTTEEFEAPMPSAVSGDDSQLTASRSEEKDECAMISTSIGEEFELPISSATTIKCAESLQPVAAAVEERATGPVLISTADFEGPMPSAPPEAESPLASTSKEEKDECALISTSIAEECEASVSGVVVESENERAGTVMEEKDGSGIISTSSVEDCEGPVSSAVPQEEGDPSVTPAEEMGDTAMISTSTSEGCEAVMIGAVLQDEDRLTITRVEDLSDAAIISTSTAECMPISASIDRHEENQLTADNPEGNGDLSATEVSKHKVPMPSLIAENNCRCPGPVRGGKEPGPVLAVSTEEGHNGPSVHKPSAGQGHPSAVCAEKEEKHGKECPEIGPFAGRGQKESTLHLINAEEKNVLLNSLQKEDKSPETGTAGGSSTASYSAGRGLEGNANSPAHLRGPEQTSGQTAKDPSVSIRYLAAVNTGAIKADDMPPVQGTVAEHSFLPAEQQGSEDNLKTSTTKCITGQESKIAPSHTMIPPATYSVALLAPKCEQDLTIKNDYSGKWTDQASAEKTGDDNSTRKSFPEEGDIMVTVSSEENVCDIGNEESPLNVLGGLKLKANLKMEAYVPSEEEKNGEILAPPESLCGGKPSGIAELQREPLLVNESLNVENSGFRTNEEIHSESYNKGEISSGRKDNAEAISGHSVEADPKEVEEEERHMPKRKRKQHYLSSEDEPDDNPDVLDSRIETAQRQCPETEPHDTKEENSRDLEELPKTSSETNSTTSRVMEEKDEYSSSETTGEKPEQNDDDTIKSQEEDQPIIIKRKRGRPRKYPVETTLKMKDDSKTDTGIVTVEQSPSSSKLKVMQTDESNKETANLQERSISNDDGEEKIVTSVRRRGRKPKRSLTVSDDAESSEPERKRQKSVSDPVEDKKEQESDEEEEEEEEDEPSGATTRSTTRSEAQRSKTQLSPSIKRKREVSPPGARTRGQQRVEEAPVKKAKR

Assays:
[1] = molecular target: SETD1A F5-5A (alanine substitution mutant of LNRKM) (human) (UniProt O15047); experiment: co-IP; 293T cells transfected with tagged constructs; SETD1A constructs precipitated (anti-FLAG M2 or anti-HA agarose, overnight 4 °C), BOD1L and cyclin K detected by western blot; washes with 0.5 M STEN buffer (500 mM NaCl, 0.2% NP-40)
[2] = molecular target: SETD1A double-motif mutant, F5-5A with F2 (BuGZ/BUB3-binding site) (human) (UniProt O15047); experiment: as above
[3] = molecular target: SETD1A double-motif mutant, F5-5A with F1 (cyclin K-binding site) (human) (UniProt O15047); experiment: as above
[4] = molecular target: BOD1L ΔShg (mutant lacking the Shg1 domain) (human) (UniProt Q8NFC6); experiment: co-IP; 293T cells; BOD1L constructs precipitated (anti-FLAG M2 or anti-HA agarose, overnight 4 °C), SETD1A detected by western blot; washes with 0.5 M STEN buffer (500 mM NaCl, 0.2% NP-40)
[5] = molecular target: BOD1L ΔIDR (mutant lacking the conserved IDR) (human) (UniProt Q8NFC6); experiment: as above

binding [1] | binding [2] | binding [3] | binding [4] | binding [5] | Substance
no binding | no binding | no binding | – | – | BOD1L, full-length human (from UniProt Q8NFC6 1-3051)
– | – | – | no binding | binds | SETD1A (wild type) (from UniProt O15047 1-1707)

No constants are given. Whether binding was seen depends on the method and setting. In cells and extracts the contact can be indirect. For some assays here: Binding calls can cover weak binding; strength is not graded here.
